# Experimental data: PMC12040169 (PLOS Biology, 2025)
# The list shows a part of the results.
# Test system: T1, CTL2-GFP (C. trachomatis L2/434/Bu, GFP-expressing)
# T1 construct: L2/434/Bu, GFP-expressing
# Parameters: species or system HeLa; Intracellular C. trachomatis growth in HeLa cells, bulk GFP fluorescence relative to DMSO
# Conditions: bulk GFP, single well; 28.5 h, 10 µM; inhibitor
row,Structure (SMILES),% of control remaining [%]
1,Cc1nn(CCC#N)c(C)c1CCC(=O)NCc1ccccn1 [CBK305693],97.5465
2,O=C(COc1ccccc1)N1CCC(Oc2nccnc2OCc2ccc(Cl)c(Cl)c2)CC1 [CBK160718],70.2513
3,COCCCOc1nc2ccccc2nc1C(F)(F)F [CBK115803],98.7724
4,O=C(c1cc(C(F)(F)F)cc(C(F)(F)F)c1)N1CCC(O)(c2ccc(Cl)cc2)CC1 [CBK061972],103.914
5,O=C(O)C(Cc1cc2ccccc2[nH]1)N1C(=O)C2CC=C(Cl)CC2C1=O (stereo not drawn) [CBK266216],108.086
6,Cc1nc2nc(N)nn2c(C)c1CCC(=O)NCc1ccccc1F [CBK305860],139.967
7,O=C(NC1CC1)c1ccc(-c2cnc3[nH]c(=O)n(CC4CCOCC4)c3n2)cc1 [CBK064890],154.757
8,C=CCNC(=O)c1cc(Br)cnc1NCC1CC1 [CBK076424],179.379
9,COc1ccccc1N1CCN(C(=O)c2snnc2C)CC1 [CBK057792],118.122
10,Nc1ccc(NC(=O)c2ccc(NC(=O)c3cnc(-c4ccccc4)c(-c4ccncc4)c3)cc2)cc1 [CBK037463],152.604
11,O=C(c1cc(S(=O)(=O)N2CCCCC2)c(Cl)cc1N1CCOCC1)N1CCOCC1 [CBK263400],73.4557
12,O=C(O)CSc1nc2cc(Cl)c(Cl)cc2nc1N1CCCC1 [CBK107863],117.431
13,COc1ccc(NC(=O)c2c(C)[nH]c(=O)[nH]c2=S)cc1OC [CBK115517],131.729
14,CN1CCC(Cc2nc(CC3CCCOC3)n(CC(F)(F)F)n2)CC1 (stereo not drawn) [CBK306801],126.305
15,O=C1N/C(=N\c2ccccn2)SC1Cc1ccc(Br)cc1 (stereo not drawn) [CBK263109],100
16,CCn1nc(C)c(C(C)NC(=O)c2c3c(nn2CC)CCCC3)c1C (stereo not drawn) [CBK282077],121.722
17,CN(C)S(=O)(=O)N1CCN(c2ccnc3cc(Cl)ccc23)CC1 [CBK269785],115.651
18,O=C(O)c1ccc(CNC(=S)NCC2CCCO2)cc1 (stereo not drawn) [CBK266908],132.411
19,COC(=O)C1(Cc2cc(-c3ccccc3F)no2)CCOCC1 [CBK285182],125.666
20,CCNC(=O)Nc1ccc2c(-c3cccc(C(F)(F)F)c3)ccnc2n1 [CBK070678],100

# By substructure, the compounds so far containing fluorine (six)
row,Structure (SMILES),% of control remaining [%]
3,COCCCOc1nc2ccccc2nc1C(F)(F)F [CBK115803],98.7724
4,O=C(c1cc(C(F)(F)F)cc(C(F)(F)F)c1)N1CCC(O)(c2ccc(Cl)cc2)CC1 [CBK061972],103.914
6,Cc1nc2nc(N)nn2c(C)c1CCC(=O)NCc1ccccc1F [CBK305860],139.967
14,CN1CCC(Cc2nc(CC3CCCOC3)n(CC(F)(F)F)n2)CC1 (stereo not drawn) [CBK306801],126.305
19,COC(=O)C1(Cc2cc(-c3ccccc3F)no2)CCOCC1 [CBK285182],125.666
20,CCNC(=O)Nc1ccc2c(-c3cccc(C(F)(F)F)c3)ccnc2n1 [CBK070678],100

# Continued.

row,Structure (SMILES),% of control remaining [%]
1,COC(=O)COc1ccc2cccc(-n3cnnn3)c2c1 [CBK270173],150.362
2,COc1ccc(CCNc2ccccc2[N+](=O)[O-])cc1OC [CBK074819],93.735
3,Cc1ccc(S(=O)(=O)NCCNc2ccc(Cl)cc2[N+](=O)[O-])cc1 [CBK263784],106.067
4,CS(=O)(=O)Nc1nccnc1OC1CCNCC1 [CBK074265T],157.727
5,CC(C)Nc1nc(NC(C)C)nc(N(C)C(N)=O)n1 [CBK027732],137.976
6,CC(C)(C)c1nnc(NCc2ccccc2)s1 [CBK074922],81.3194
7,COc1ccc(C(=O)N2C[C@@H]3C[C@H](C2)c2ccc(-c4cccnc4)c(=O)n2C3)cc1 [CBK289182],118.552
8,Cc1ccc(C(C)C)cc1OCC(=O)N/N=C\c1cc([N+](=O)[O-])ccc1O [CBK261206],82.6998
9,Cc1cc(C(=O)N2CCCC2c2ccc[nH]2)c2c(C)noc2n1 (stereo not drawn) [CBK305245],90.2499
10,CCOC(=O)CN1CCCN(c2nccc(OCC3COc4ccccc4O3)n2)CC1 (stereo not drawn) [CBK083975],96.6097
11,CC(=O)c1sc2nc(C)cc(C)c2c1N [CBK131882],175.758
12,COC(=O)c1ccsc1NS(=O)(=O)Cc1ccccc1 [CBK039067],156.462
13,CC(C)NC(=O)c1cc(C2CN(C(=O)CCc3ccccc3F)CCO2)nc2ccccc12 (stereo not drawn) [CBK285893],98.0806
14,O=C(NCc1c(Cl)cccc1Cl)N1CCCC(CO)C1 (stereo not drawn) [CBK156054],89.2787
15,CCC1CNCCN1c1nccnc1OCCOc1cccnc1 (stereo not drawn) [CBK001559F],127.993
16,O=C(Nc1ccc(F)c(F)c1)c1cnc2sccn2c1=O [CBK287450],113.01
17,COC(=O)c1ccsc1NS(=O)(=O)c1ccc(Oc2ccccc2)cc1 [CBK039064],90.7527
18,COCCN(C(=O)CCC(=O)NCCc1ccccc1)C1CCN(C)CC1 [CBK014576],112.217
19,O=C(NC(c1ccccc1)c1ccco1)C1CCN(C(=S)NCCc2ccccc2)CC1 (stereo not drawn) [CBK060412],162.179
